Substitutions are numbered along the chain they refer to. In names and notes the source's numbering stands. Results are given in words; binding and its absence hold for the method and conditions named. Some binding calls cover weakened binding; strength is not graded here. Blank lines part the entries; values can stand above or below the binder they belong to.
Columns and labels:
Assay in all cases: SEC; protein extracts of 7-d.o. seedlings (600 µg total protein) fractionated on Superdex 200 10/300 GL at 4°C in 50 mM Tris-HCl pH 7.5, 150 mM NaCl, 1 mM EDTA, 10% glycerol, 10 mM MgCl2, 1 mM DTT; 0.5 mL fractions immunoblotted with antibodies against CSN subunits
[1] = biological target: T1, COP9 signalosome subunit 4 (CSN4) (Arabidopsis thaliana (endogenous in Col-0 and csn3-3 seedlings)) (UniProt Q8L5U0)
T1 sequence: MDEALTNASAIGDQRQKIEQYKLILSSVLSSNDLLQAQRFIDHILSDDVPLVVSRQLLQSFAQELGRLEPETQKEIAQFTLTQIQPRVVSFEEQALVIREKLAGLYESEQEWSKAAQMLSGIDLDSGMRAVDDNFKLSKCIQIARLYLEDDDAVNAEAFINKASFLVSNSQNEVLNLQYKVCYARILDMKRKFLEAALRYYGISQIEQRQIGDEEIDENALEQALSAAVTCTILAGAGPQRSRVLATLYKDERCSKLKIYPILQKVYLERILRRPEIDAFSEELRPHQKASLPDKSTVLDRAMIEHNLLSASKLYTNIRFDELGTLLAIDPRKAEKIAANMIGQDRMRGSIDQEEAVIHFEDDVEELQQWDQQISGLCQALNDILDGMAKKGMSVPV

[2] = biological target: T2, COP9 signalosome subunit 1 (CSN1) (Arabidopsis thaliana (endogenous in Col-0 and csn3-3 seedlings)) (UniProt P45432)
T2 sequence: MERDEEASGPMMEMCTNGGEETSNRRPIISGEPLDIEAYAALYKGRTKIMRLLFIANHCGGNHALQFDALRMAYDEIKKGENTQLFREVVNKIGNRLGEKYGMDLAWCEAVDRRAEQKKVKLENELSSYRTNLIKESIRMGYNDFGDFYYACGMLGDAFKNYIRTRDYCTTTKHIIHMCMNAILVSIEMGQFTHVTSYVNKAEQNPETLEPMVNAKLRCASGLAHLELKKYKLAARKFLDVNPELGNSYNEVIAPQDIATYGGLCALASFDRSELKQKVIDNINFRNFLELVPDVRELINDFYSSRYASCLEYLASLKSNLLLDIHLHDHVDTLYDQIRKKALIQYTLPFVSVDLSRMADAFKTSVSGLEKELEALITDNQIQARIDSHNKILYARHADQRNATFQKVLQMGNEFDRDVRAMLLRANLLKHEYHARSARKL

[3] = biological target: T3, COP9 signalosome subunit 8 (CSN8) (Arabidopsis thaliana (endogenous in Col-0 and csn3-3 seedlings)) (UniProt P43255)
T3 sequence: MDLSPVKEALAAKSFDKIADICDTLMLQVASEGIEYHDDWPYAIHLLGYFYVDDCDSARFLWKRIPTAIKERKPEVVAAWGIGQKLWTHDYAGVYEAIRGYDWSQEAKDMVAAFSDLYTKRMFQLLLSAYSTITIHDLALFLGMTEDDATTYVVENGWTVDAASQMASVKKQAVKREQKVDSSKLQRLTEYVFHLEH

binding [1]: binds | binding [2]: binds | binding [3]: binds
B1: COP9 signalosome subunit 3 (CSN3) (protein, UniProt Q8W575 1-429)
chain: MIGAVNSVEAVITSIQGLSGSPEDLSALHDLLRGAQDSLRAEPGVNFSTLDQLDASKHSLGYLYFLEVLTCGPVSKEKAAYEIPIIARFINSCDAGQIRLASYKFVSLCKILKDHVIALGDPLRGVGPLLNAVQKLQVSSKRLTALHPDVLQLCLQAKSYKSGFSILSDDIVEIDQPRDFFLYSYYGGMICIGLKRFQKALELLYNVVTAPMHQVNAIALEAYKKYILVSLIHNGQFTNTLPKCASTAAQRSFKNYTGPYIELGNCYNDGKIGELEALVVARNAEFEEDKNLGLVKQAVSSLYKRNILRLTQKYLTLSLQDIANMVQLGNAKEAEMHVLQMIQDGQIHALINQKDGMVRFLEDPEQYKSSEMIEIMDSVIQRTIGLSKNLLAMDESLSCDPLYLGKVGRERQRYDFGDDFDTVPQKFSM

binding [1]: binds | binding [2]: binds | binding [3]: binds
B2: csn3-3 mutant protein (CSN3 G293E) (protein, UniProt Q8W575 1-429)
chain: B1 chain with G293E
